Source: the supplement of paper PMC8728848
This is one part of the list.

What was measured:
Assay in all cases: glycan array binding signal (z-score within array); higher = stronger binding
Settings in all cases: glycan notation: IUPAC condensed, linker removed
Gal3S(b1-4)Glc6S = molecular target: Gal3S(b1-4)Glc6S
In short: (§1)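 Glycan array data came from 3228 arrays in the Consortium for Functional Glycomics database, and only arrays with an available protein sequence were kept. Glycan names were put into IUPAC-condensed notation, and columns mapping to the same glycan were averaged. The binding signal is a within-array Z-score, averaged across arrays of one protein sequence run at different concentrations or buffers and across linkers. A negative Z-score can be read as non-binding.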

Gal3S(b1-4)GlcNAc = molecular target: Gal3S(b1-4)GlcNAc
In short: as §1

[1] = molecular target: Gal3S(b1-4)[Fuc(a1-3)]Glc6S
In short: as §1

[2] = molecular target: Gal3S(b1-4)[Fuc(a1-3)]GlcNAc
In short: as §1

[3] = molecular target: Gal3S(b1-4)[Fuc(a1-3)]GlcNAc6S
In short: as §1

Gal3S4S(b1-4)GlcNAc = molecular target: Gal3S4S(b1-4)GlcNAc
In short: as §1

Gal3S6S(b1-4)GlcNAc = molecular target: Gal3S6S(b1-4)GlcNAc
In short: as §1

Gal3S6S(b1-4)GlcNAc6S = molecular target: Gal3S6S(b1-4)GlcNAc6S
In short: as §1

Gal4S(b1-4)GlcNAc = molecular target: Gal4S(b1-4)GlcNAc
In short: as §1

Gal4S6S(b1-4)GlcNAc = molecular target: Gal4S6S(b1-4)GlcNAc
In short: as §1

Gal6P(b1-4)GlcNAc = molecular target: Gal6P(b1-4)GlcNAc
In short: as §1

Gal6S(b1-3)GlcNAc = molecular target: Gal6S(b1-3)GlcNAc
In short: as §1

Gal6S(b1-3)GlcNAc6S = molecular target: Gal6S(b1-3)GlcNAc6S
In short: as §1

Gal6S(b1-4)Glc = molecular target: Gal6S(b1-4)Glc
In short: as §1

Gal6S(b1-4)Glc6S = molecular target: Gal6S(b1-4)Glc6S
In short: as §1

Gal6S(b1-4)GlcNAc = molecular target: Gal6S(b1-4)GlcNAc
In short: as §1

Gal6S(b1-4)GlcNAc6S = molecular target: Gal6S(b1-4)GlcNAc6S
In short: as §1

GalNAc(a1-3)Gal = molecular target: GalNAc(a1-3)Gal
In short: as §1

GalNAc(a1-3)GalNAc = molecular target: GalNAc(a1-3)GalNAc
In short: as §1

[4] = molecular target: GalNAc(a1-3)GalNAc(a1-3)Gal(a1-4)Gal(b1-4)GlcNAc
In short: as §1

[5] = molecular target: GalNAc(a1-3)GalNAc(b1-3)Gal(a1-4)Gal(b1-4)Glc
In short: as §1

GalNAc(b1-3)Gal = molecular target: GalNAc(b1-3)Gal
In short: as §1

[6] = molecular target: GalNAc(b1-3)Gal(a1-4)Gal(b1-4)GlcNAc
In short: as §1

[7] = molecular target: GalNAc(b1-3)Gal(a1-4)Gal(b1-4)GlcNAc(b1-3)Gal(b1-4)Glc
In short: as §1

[8] = molecular target: GalNAc(b1-3)Gal(a1-6)Gal(b1-4)Glc
In short: as §1

GalNAc(b1-3)GalNAc = molecular target: GalNAc(b1-3)GalNAc
In short: as §1

GalNAc(b1-3)GlcNAc = molecular target: GalNAc(b1-3)GlcNAc
In short: as §1

GalNAc(b1-4)Gal(b1-4)Glc = molecular target: GalNAc(b1-4)Gal(b1-4)Glc
In short: as §1

GalNAc(b1-4)GlcNAc = molecular target: GalNAc(b1-4)GlcNAc
In short: as §1

[9] = molecular target: GalNAc(b1-4)GlcNAc(b1-2)Man
In short: as §1

B1: Blon0732mut (Bifidobacterium longum) (protein)
chain: MPTSEHKADDATRHLTLIPAPVTLEYTHGTALIGPLVTIEDADQSWETLPIEQLSDELRHRYGVTVLRRRTHGTVISLGLDSRLAHDEYTLDVSESEGIRVRGGGESGLRYGLQTLRQIIGQTSRAIPCLHIQDKPAFAVRAYSLDVTRGRVPTMEFLTWFVDQLALYKYNQFQLYVEHAFAFVELSEAWRGTDPLTAADITYLDEYCARRGIELVPSLATFGHMYMNLRTREHRGLGEFPEDADRPFSFIERMEHHTLNAADPKAHDFASRLIEEYAPLFRSKSFNIGGNETFDLGRGRSAQDAPEAGRDELYAGFVRDLCETLARHGRQPMLWADIALESPRTMDLLPGDITMLNWMYEPQIDESKIQTIATQGRRQFVCPAVRAWSRFFPDYAGAWLNTYHMALAGTKYDAEGMVVTDWGDYGHVNDPRLSVPGLCYGAQNAWNPIEIDAHEMNRRISALVYGDESGRIMDCLARIDSDGVSFPWDLAVQVLELEYGSGTGALNMDVAACMERSSGGKLTLDRTLGCDDARRRMLQWNRERIERRRDCDQVLRDCGDAFAGLDKGGLTAEFLSVMLDGQRLFNELGEELLALADGKDVGSGANRLAADLELWFERYRAQWLSVGRHAELARIAHVVWSLADILRRGAL
- glycan array binding signal (z-score) (Gal3S(b1-4)Glc6S): 0.627
- glycan array binding signal (z-score) (Gal3S(b1-4)GlcNAc): -0.019
- glycan array binding signal (z-score) [1]: 4.3
- glycan array binding signal (z-score) [2]: 3.42
- glycan array binding signal (z-score) [3]: 0.844
- glycan array binding signal (z-score) (Gal3S4S(b1-4)GlcNAc): -0.559
- glycan array binding signal (z-score) (Gal3S6S(b1-4)GlcNAc): 2.19
- glycan array binding signal (z-score) (Gal3S6S(b1-4)GlcNAc6S): 1.8
- glycan array binding signal (z-score) (Gal4S(b1-4)GlcNAc): 0.426
- glycan array binding signal (z-score) (Gal4S6S(b1-4)GlcNAc): 2.26
- glycan array binding signal (z-score) (Gal6P(b1-4)GlcNAc): 0.616
- glycan array binding signal (z-score) (Gal6S(b1-3)GlcNAc): -0.605
- glycan array binding signal (z-score) (Gal6S(b1-3)GlcNAc6S): -0.273
- glycan array binding signal (z-score) (Gal6S(b1-4)Glc): -0.046
- glycan array binding signal (z-score) (Gal6S(b1-4)Glc6S): 0.094
- glycan array binding signal (z-score) (Gal6S(b1-4)GlcNAc): -0.307
- glycan array binding signal (z-score) (Gal6S(b1-4)GlcNAc6S): 0.168
- glycan array binding signal (z-score) (GalNAc(a1-3)Gal): -0.61
- glycan array binding signal (z-score) (GalNAc(a1-3)GalNAc): -1.12
- glycan array binding signal (z-score) [4]: -0.192
- glycan array binding signal (z-score) [5]: -0.247
- glycan array binding signal (z-score) (GalNAc(b1-3)Gal): -0.773
- glycan array binding signal (z-score) [6]: 0.521
- glycan array binding signal (z-score) [7]: -0.195
- glycan array binding signal (z-score) [8]: -0.574
- glycan array binding signal (z-score) (GalNAc(b1-3)GalNAc): 0.297
- glycan array binding signal (z-score) (GalNAc(b1-3)GlcNAc): -0.332
- glycan array binding signal (z-score) (GalNAc(b1-4)Gal(b1-4)Glc): -1.33
- glycan array binding signal (z-score) (GalNAc(b1-4)GlcNAc): 0.772
- glycan array binding signal (z-score) [9]: 0.028
